## Percent effect of library compounds

Chains of the proteins cited; added tags and fusions are not shown. Residues count along the entry.
UniProt I6X8D2, whole entry: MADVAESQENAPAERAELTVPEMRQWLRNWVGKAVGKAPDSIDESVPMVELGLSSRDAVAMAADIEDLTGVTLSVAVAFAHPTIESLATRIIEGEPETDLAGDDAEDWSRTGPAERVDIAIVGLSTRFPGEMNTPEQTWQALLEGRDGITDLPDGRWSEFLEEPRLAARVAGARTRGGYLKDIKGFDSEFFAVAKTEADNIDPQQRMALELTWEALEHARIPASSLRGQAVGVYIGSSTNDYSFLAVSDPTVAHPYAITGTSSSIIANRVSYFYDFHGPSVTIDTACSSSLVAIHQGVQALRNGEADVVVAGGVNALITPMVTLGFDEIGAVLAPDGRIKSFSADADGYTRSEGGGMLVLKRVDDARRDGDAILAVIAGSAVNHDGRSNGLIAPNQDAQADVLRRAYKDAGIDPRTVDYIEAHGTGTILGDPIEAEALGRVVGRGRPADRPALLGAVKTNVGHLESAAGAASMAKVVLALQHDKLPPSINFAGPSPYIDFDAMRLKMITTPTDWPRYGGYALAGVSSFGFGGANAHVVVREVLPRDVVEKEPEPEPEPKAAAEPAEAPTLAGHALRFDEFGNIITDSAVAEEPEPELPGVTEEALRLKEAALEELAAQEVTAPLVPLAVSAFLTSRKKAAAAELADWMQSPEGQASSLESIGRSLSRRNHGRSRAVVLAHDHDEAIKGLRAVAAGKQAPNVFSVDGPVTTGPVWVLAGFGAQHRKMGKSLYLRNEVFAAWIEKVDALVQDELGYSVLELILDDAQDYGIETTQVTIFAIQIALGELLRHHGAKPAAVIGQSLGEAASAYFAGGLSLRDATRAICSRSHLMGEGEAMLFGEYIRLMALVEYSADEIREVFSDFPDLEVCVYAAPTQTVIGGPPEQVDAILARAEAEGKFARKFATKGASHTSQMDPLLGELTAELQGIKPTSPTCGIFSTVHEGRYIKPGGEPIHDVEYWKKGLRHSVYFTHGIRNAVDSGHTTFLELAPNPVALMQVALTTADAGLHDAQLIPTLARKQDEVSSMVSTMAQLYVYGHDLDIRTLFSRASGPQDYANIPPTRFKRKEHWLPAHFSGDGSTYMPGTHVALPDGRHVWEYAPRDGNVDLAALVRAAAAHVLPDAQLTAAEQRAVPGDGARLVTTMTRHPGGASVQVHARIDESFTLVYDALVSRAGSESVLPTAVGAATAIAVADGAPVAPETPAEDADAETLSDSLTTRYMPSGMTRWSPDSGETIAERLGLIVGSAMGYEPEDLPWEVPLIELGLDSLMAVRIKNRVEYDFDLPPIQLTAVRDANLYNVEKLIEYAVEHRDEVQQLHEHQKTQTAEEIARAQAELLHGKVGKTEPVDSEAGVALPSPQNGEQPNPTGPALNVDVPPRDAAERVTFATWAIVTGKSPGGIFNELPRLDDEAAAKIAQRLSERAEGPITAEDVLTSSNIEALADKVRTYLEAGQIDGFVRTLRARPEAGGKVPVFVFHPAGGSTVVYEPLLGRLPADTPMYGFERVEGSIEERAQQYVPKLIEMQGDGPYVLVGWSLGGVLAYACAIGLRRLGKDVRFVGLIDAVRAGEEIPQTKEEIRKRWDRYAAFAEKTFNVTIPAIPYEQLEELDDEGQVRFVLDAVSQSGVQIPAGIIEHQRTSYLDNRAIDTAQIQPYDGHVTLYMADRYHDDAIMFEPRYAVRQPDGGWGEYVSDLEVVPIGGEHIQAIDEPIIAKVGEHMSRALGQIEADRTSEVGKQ
UniProt Q4DA54, 1-478: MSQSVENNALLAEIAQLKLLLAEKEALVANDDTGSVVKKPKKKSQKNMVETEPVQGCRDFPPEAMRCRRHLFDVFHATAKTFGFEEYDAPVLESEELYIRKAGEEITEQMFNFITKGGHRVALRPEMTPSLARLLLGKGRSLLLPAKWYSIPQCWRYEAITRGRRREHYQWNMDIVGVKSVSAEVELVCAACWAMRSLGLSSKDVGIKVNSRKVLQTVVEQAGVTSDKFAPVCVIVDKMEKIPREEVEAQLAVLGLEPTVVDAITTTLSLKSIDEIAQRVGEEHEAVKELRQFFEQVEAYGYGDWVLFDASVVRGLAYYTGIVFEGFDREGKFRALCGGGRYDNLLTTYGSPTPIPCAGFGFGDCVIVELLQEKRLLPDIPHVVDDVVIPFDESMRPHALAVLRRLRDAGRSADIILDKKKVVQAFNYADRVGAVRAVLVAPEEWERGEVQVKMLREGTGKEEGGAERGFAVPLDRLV

Pks13 thioesterase: 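Polyketide synthase Pks13, Mycobacterium tuberculosis (UniProt I6X8D2). Enzyme assay of the thioesterase domain of polyketide synthase 13; the read-out is not stated. Compounds at 30 µM. The record gives no direction; the compounds picked for IC50 retests had high values, so higher reads as stronger inhibition. About 67,000 compounds were tested under these conditions; 0.46% (about 300) showed 50% or more at least once.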
TcHisRS: 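Histidine-tRNA ligase, Trypanosoma cruzi CL Brener (UniProt Q4DA54). Enzyme assay of histidyl-tRNA synthetase; the read-out is not stated. Concentration: 30 µM. The record gives no direction; compounds that gave an IC50 in retests scored well above the rest, so higher reads as stronger inhibition. Size under these conditions: about 69,000 compounds, about 31 of them at 50% or above in at least one test.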

The filed quantity is “Percent Effect” (%). The controls that fix the scale are not given in the record; negative values are as filed. The compounds are a random part of those screened. A dash means the value is not listed here; it may have been measured.

Compound	Pks13 thioesterase	TcHisRS
O=C(C1CCCC1)N1CCn2c(nnc2C2CCCNC2)C1 (centres undefined)	-1.88	5.325
Cn1c(N)c2c(=O)n(C)c(-c3ccc(Cl)cc3Cl)cc2c(C#N)c1=O	-14.5	11.34
Cc1nc(N)nc(C)c1CC(=O)N1CCCCC1c1cccc(F)c1 (centres undefined)	-16.14	3.627
COCCN1CCN(CC(O)c2ccc(OC(F)(F)F)cc2)CC1 (centres undefined)	-11.9	5.523
Cn1ccnc1CN1CCCN(C(=O)c2ccc3cc[nH]c3c2)CC1	0.02738	-1.156
CC(C)N1CC[C@@](C)(O)[C@H](n2ccc(=O)[nH]c2=O)C1	-0.05062	5.303
Cn1cc(CNC2CCCOc3c2ccc2ccccc32)cn1 (centres undefined)	-18.09	8.808
COCCCNC(=O)CN1CCC(c2ccccc2)C1 (centres undefined)	-4.933	-1.242
CC(NC(N)=O)C(=O)N1CCCN(Cc2nccn2C(C)C)CC1 (centres undefined)	-5.966	6.391
CC(=O)NC(C)C(=O)N(Cc1ccc(C)c(C)c1)C1CC1 (centres undefined)	-43.92	9.091
Cc1nn(C(C)C)c2cn(CC(=O)NC3CCSCC3)nc12	-21.14	2.632
O=C(Nc1cnccn1)[C@H]1COC[C@H]2CN(C3CCCC3)C[C@H]21	-5.389	-0.5348
Cc1ccc2[nH]c(=O)c(CN(C)Cc3cc(C4CC4)[nH]n3)cc2c1	-4.828	5.587
Cc1ccc(S(=O)(=O)N2CC(C)Oc3ncccc32)c(F)c1 (centres undefined)	-39.01	1.478
Cc1noc([C@@H](C)NCc2ccc(F)cc2)c1C(=O)O	-28.81	2.488
O=C([C@@H]1CSCN1)N1CC2(CCNCC2)c2cc(Cl)ccc21	-35.97	6.145
CCc1csc(C2CCCN(C(=O)CCn3cc(C)cn3)C2)n1 (centres undefined)	-15.91	0
CC(C)CNC(=O)C(C)N1CCN(C2CCN(C(C)C)CC2)CC1 (centres undefined)	-	7.059
Cc1nn(C)c(C)c1C1COCCN1C(=O)CC(C)(C)C (centres undefined)	-0.5827	7.143
CCOCC(=O)N1CC[C@H]2OCC[C@@]2(COc2ncccc2F)C1	-24.43	6.522
CN1CCC2(CCCN(C(=O)c3cncn3C)C2)CC1	0.9648	6.135
O=C(c1ccncc1)N1CCCn2nnc(COCCO)c2C1	-31.07	3.743
O=C1CC[C@]2(CC[C@@H](NCc3cccnc3)CC2)N1Cc1ccccc1	-17.59	4.854
COc1cc2nc(NCCN3CCNC3=O)cc(C)c2cc1OC	12.6	5.6
Cn1ccc(C(=O)N2CCCC(CNS(C)(=O)=O)C2)cc1=O (centres undefined)	-11.59	1.053
COCC(=O)N1CCC(c2cc3nc(C)cc(C(F)(F)F)n3n2)CC1	-3.101	3.03
O=C(CCc1nc2ccccc2[nH]1)Nc1ccc2c(c1)OCC(=O)N2	1.646	9.845
Cc1ccsc1-c1nccn1CCS(C)(=O)=O	2.985	3.333
CC(CS(C)(=O)=O)N(C(=O)c1ccc(Cl)s1)C1CC1 (centres undefined)	-21.31	5.844
Cc1nc(CN2CCO[C@H]3CN(C(=O)c4cccn4C)C[C@H]32)cs1	-8.621	8.743
O=C1CCC2(CCN(Cc3ncccn3)CC2)CN1CCCO	-11.89	6.077
CCCc1cnc(C)nc1N1CCC(Cn2cc(CO)nn2)CC1	4.964	8.155
O=C(NCc1cc(Cl)ccn1)NCc1ccco1	-50.26	11.69
COCCc1noc(-c2cc(Cl)c3c(c2)OCCCO3)n1	7.811	1.22
Cc1ccc(=O)n(CC2(O)CCN(Cc3ccsc3)CC2)n1	-40.48	5.946
O=C(CCCc1ncc(-c2ccccc2)o1)N1CCN(CCO)CC1	-11.42	3.008
COC(=O)NCCCn1ccnc1-c1ccccc1	-13.77	11
COCc1noc(C2(c3ccc(OC)cc3)CCOCC2)n1	-30.67	-0.8333
CCC(C(=O)N(Cc1ccccc1OC)C1CC1)n1cccn1 (centres undefined)	-23.98	4.242
O=C(C1CCC1)N1C[C@@H]2CC[C@H](C1)N(S(=O)(=O)c1ccccc1)C2	-44.5	3.867
NC(=O)c1cnc2n1CCN(C(=O)c1cccc(Cn3cccn3)c1)C2	-10.92	8.247
Cn1c(Cn2ccnc2)nnc1C1CCCN(C2CCCCC2)C1 (centres undefined)	-11.21	3.333
CC(C)COc1ccc(C2SCC(=O)Nc3c2c(=O)[nH]n3C(C)C)cc1 (centres undefined)	-6.072	-0.5917
Brc1cnc(NCCCOCC2CCOCC2)nc1	-0.7648	9.524
CCOc1ccc2c(c1)CN(Cc1nc3c(cnn3C)c(=O)[nH]1)CC2	3.67	4.094
CCOC(C)c1nc(Cn2cccn2)cs1 (centres undefined)	-28.96	1.961
O=C(C1CC1)N1CCC2(CC1)CNCc1ccccc12	-10.81	1.266
CCOCc1nc2c(c(N(C)Cc3nonc3C)n1)CCNCC2	-16.84	-2.976
COc1ccc(C(=O)N2CCC3(CC2)c2ccccc2[C@@H](N)[C@@H]3O)cc1	-	7.5
COc1ccc(CN(CC2CCCO2)C(=O)CN2CCOC2=O)cc1 (centres undefined)	-18.05	10.98
Cc1nnc(NCc2ccc(SC(F)F)cc2)o1	-20.03	6.863
Cc1ccc(N2CCCC(NCc3c(C)noc3C)C2)nn1 (centres undefined)	-20.41	7.123
CCNCCOc1ccc(-c2cc(N)nc3[nH]ccc23)cc1	2.409	18.53
CC(C)Cn1cncc1CNC(=O)c1cccc(-n2cnnc2)c1	-40.43	-0.5405
CC(NC1CCN(CC(=O)N(C)C)CC1)c1cnn(C(C)C)c1 (centres undefined)	1.717	-7.317
OCCNc1cc(-c2ccccc2)ncn1	-	13.56
CC(CCN1CCC(n2cc(CCO)nn2)CC1)c1ccccc1 (centres undefined)	-17.39	9.453
Cc1cc(F)ccc1CN1CCC(O)(CN2CCCCC2)C1 (centres undefined)	-18.46	2.905
CC(=O)Nc1nc(C(=O)NCc2ccc(N3CCOCC3)nc2)cs1	-33.25	1.69
COCCn1c(=O)n(Cc2cccc(F)c2F)c2cc(C(=O)O)ccc21	6.485	-4.706
C/C(=C\c1ccco1)CN(C)C(C)Cc1cc(C)ccn1 (centres undefined)	-6.192	5.319
COCCN1CCN(Cc2ccncc2)[C@H]2CS(=O)(=O)C[C@H]21	-1.098	-1.653
Cc1nc(CNC(=O)NC2CCN(c3ncccc3Cl)C2)no1 (centres undefined)	-12.5	8.642
N#Cc1cccc(OCCN2CCOC(Cn3cccn3)C2)c1 (centres undefined)	-1.092	2.89
Cc1c(Cl)c(C(=O)N2C[C@@H](C(=O)O)[C@H](c3cccnc3)C2)nn1C	-6.865	-3.784
Nc1nccnc1CC1CCCN(Cc2c[nH]c3ccccc23)C1 (centres undefined)	15.35	0.7692
CC(=O)Nc1c(C)cnn1Cc1cc(F)ccc1F	-7.473	5.394
COc1ccc(CC(=O)N2CC[C@@H](OC)[C@@H]2Cc2cccnc2)cc1	6.604	7.263
COc1ccccc1C1CC(=O)Nc2c1c(=O)[nH]n2C1CCCC1 (centres undefined)	-9.757	3.093
COc1cnc(CSc2nnc(C)s2)cc1OCC(=O)NC(C)(C)C	8.236	2.439
CCOCCN1CCN(CCc2ccc3c(c2)CCO3)CC1	4.633	-4.663
COc1c(C)cnc(CN2CCC(N(C)C(C)C(N)=O)CC2)c1C (centres undefined)	-7.955	2.29

Repeated from the top, 4 entries:

| Compound | Pks13 thioesterase | TcHisRS |
|---|---|---|
| `O=C(C1CCCC1)N1CCn2c(nnc2C2CCCNC2)C1` (centres undefined) | -1.88 | 5.325 |
| `Cn1c(N)c2c(=O)n(C)c(-c3ccc(Cl)cc3Cl)cc2c(C#N)c1=O` | -14.5 | 11.34 |
| `Cc1nc(N)nc(C)c1CC(=O)N1CCCCC1c1cccc(F)c1` (centres undefined) | -16.14 | 3.627 |
| `COCCN1CCN(CC(O)c2ccc(OC(F)(F)F)cc2)CC1` (centres undefined) | -11.9 | 5.523 |

From ChEMBL document CHEMBL3988442, “University of Dundee, Small-Polar-MMV Screening Library” (2021).